Measured values: paper PMC6494845 (Scientific Reports, 2019)

Assay: Optical imaging, in vivo and ex vivo
Design: species or system Balb/C nude mice
Settings: 2 mg/kg i.v.

CN(C)c1ccc(/C=C/C2=[O+][B-](F)(F)OC(/C=C/c3ccc(OCCOCCF)cc3)=C2)cc1 [Ligand 2, BF2 complex of 4′-dimethylamino-4″-(2-(2-fluoroethoxy)ethoxy)curcuminoid]
ex vivo fluorescence signals in muscle, kidney, intestines and liver (2 min after injection): moderate to strong fluorescence signals
change of ex vivo fluorescence signals in muscle, kidney, intestines and liver (within 30 min): decreased to the background level
fluorescence signal in mouse brain (in vivo, 2 min after injection, ex 570 nm / em 660 nm): Moderate fluorescence signal intensity
change of fluorescence signal in mouse brain (in vivo, within 30 min): significantly decreased
